PubChem BioAssay AID743454 – Peter MacCallum Cancer Centre, 2014

- Screen: 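Genes whose loss kills vorinostat-resistant colon cancer cells under vorinostat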 (primary screen)
- Cell system: human HCT116-VR colon cancer cells, selected for vorinostat resistance
- Knock-down reagent: siRNA pool against human genes, 40 nM siRNA pool
- Timing: vorinostat for 24 h, read-out about 72 h after transfection
- Conditions: vorinostat at 2.5 µM final
- Measurement: 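Cell viability by CellTiter-Fluor and caspase 3/7 activity by luminescence, each scaled to mock wells per plate, duplicates averaged, then robust z-scored over all plates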
- Reading the numbers: viability robust z-score: higher = more viable cells than screen typical; caspase robust z-score: higher = more caspase 3/7 activity than screen typical
- Active means: 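Hits are knock-downs in viability class RV1/RV2 or caspase class CA1/CA2, excluding ones that killed cells in the no-drug cell-count arm; hits then retested with single siRNAs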
In all, the deposit lists about 18,000 reagents; this is an unselected part. Of all reagents, 450 (2.5%) got an active call. 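Single biological run; no consistent viability z cut-off exists, so the class columns, not z-scores, define the calls.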

{"Target gene": "GARIN2", "viability hit class": "no change", "caspase hit class": "no change", "viability robust z-score": 0.31, "caspase robust z-score": 0.48, "call": "inactive"}
{"Target gene": "TGM4", "viability hit class": "no change", "caspase hit class": "no change", "viability robust z-score": -0.94, "caspase robust z-score": 0.34, "call": "inactive"}
{"Target gene": "RNASE4", "viability hit class": "no change", "caspase hit class": "no change", "viability robust z-score": 0.52, "caspase robust z-score": -0.68, "call": "inactive"}
{"Target gene": "RASSF10", "viability hit class": "no change", "caspase hit class": "no change", "viability robust z-score": 0.94, "caspase robust z-score": 0.2, "call": "inactive"}
{"Target gene": "OR10J5", "viability hit class": "no change", "caspase hit class": "no change", "viability robust z-score": 0.64, "caspase robust z-score": -0.38, "call": "inactive"}
{"Target gene": "BEX1", "viability hit class": "no change", "caspase hit class": "no change", "viability robust z-score": 1.55, "caspase robust z-score": -0.28, "call": "inactive"}
{"Target gene": "OTUD7B", "viability hit class": "no change", "caspase hit class": "no change", "viability robust z-score": -1.12, "caspase robust z-score": 3.46, "call": "inactive"}
{"Target gene": "VEGFB", "viability hit class": "no change", "caspase hit class": "no change", "viability robust z-score": -1.68, "caspase robust z-score": 0.94, "call": "inactive"}
{"Target gene": "LEMD3", "viability hit class": "no change", "caspase hit class": "no change", "viability robust z-score": 0.01, "caspase robust z-score": -0.83, "call": "inactive"}
{"Target gene": "ARHGEF11", "viability hit class": "no change", "caspase hit class": "no change", "viability robust z-score": 0.32, "caspase robust z-score": -0.45, "call": "inactive"}
{"Target gene": "CYP26B1", "viability hit class": "no change", "caspase hit class": "no change", "viability robust z-score": 0.21, "caspase robust z-score": 1.08, "call": "inactive"}
{"Target gene": "OR5B17", "viability hit class": "no change", "caspase hit class": "no change", "viability robust z-score": -0.6, "caspase robust z-score": -0.08, "call": "inactive"}
{"Target gene": "ENOX2", "viability hit class": "no change", "caspase hit class": "no change", "viability robust z-score": -0.16, "caspase robust z-score": 0.57, "call": "inactive"}
{"Target gene": "SLC2A13", "viability hit class": "no change", "caspase hit class": "no change", "viability robust z-score": -0.06, "caspase robust z-score": -0.58, "call": "inactive"}
